Experimental data: PubChem BioAssay AID540303 (National Center for Advancing Translational Sciences (NCATS), 2011)
Values joined by “and” are separate entries in the source; they are usually repeats but may differ in a detail not shown here. Identical values can stand only once. The campaign covered roughly 330,000 compounds. About 1,000 (0.3%) were called active. The inconclusive results got no clear call from the source; some entries with a clear call stand among them for comparison. The call rests on the fitted dose curve; in most records, active means well fitted inhibition curve with a large enough effect; inconclusive means small, poorly fitted or top-dose-only effect; inactive means no such curve, though single readings can be large or run the other way; tested in mouse RAW 264.7 cells. A potency beside an inconclusive call is a rough fit, not a confirmed value.
Potency means the concentration at half of the fitted maximal effect.

Assay: qHTS for Inhibitors of Cell Surface uPA Generation; further: nearly all actives have a fitted effect of over 55% in size
Settings: cell surface uPA generation assay; series mostly up to 38.3 µM
Source text: The overall objective of this project is to perform a quantitative high throughput screen (qHTS) to identify novel compounds that inhibit the generation of cell surface urokinase activity. The urokinase plasminogen activator (uPA) is one of the two primary endogenous systems that mediate plasminogen activation into plasmin. Members of this system, including uPA and its receptor (uPAR), are overexpressed in several malignant tumors. This system plays a major role in adhesion, migration, invasion and metastasis of cancer cells. Small molecule inhibitors of the uPA system will serve as probes to understand the molecular mechanisms of the uPA cascade and better understanding the microenvironmental circumstances that facilitate the activation of plasminogen by uPA, and finally may provide novel candidate agents for anticancer drug therapy.
[…] […] Upon inhibition of the uPA activation cascade, the subsequent cell surface uPA activity-dependent translocation of LF into the cytoplasm is inhibited. ATP-Lite is used to measure intracellular ATP concentrations, which remain increased if LF entry into the cytoplasm is inhibited. This validation assay was performed using a small set of validation compounds.
NIH Chemical Genomics Center [NCGC]
NIH Molecular Libraries Probe Centers Network [MLPCN]
Assay Submitter (PI): Thomas Bugge, National Institute of Dental and Craniofacial Research, NIH
Cultured RAW 264.7 were dispensed into 1536-well clear bottom, white walled tissue culture plates at a density of 4000 cells/well and were incubated overnight (12-16 h) at 37 C in a 5% CO2 incubator. Serially diluted compounds in 23 nl DMSO were added to cells. […] Compound and reagent-treated plates were incubated for 24 h at 37 C in a 5% CO2 incubator. Perkin Elmer ATPlitetrade mark 1 step (3 ul) was then added to each well. Luminescence was detected using a Perkin Elmer ViewLuxtrade mark plate reader.
1.Dispensing RAW 264.7 cells into 1536-well, white walled tissue culture plates at a density of 4000 cells/well (4 uL).
2.Incubation at 37 C in a 5% CO2 incubator overnight.
3.Serially diluting compounds (1:5 serial dilution; 0.0024 uM to […] final concentration) in 23 nl DMSO.
5.Incubating the compound and reagent-treated plates for 24 hours at 37 C in a 5% CO2 incubator.
6.Adding ATP-Lite (3 ul).
7.Reading plates by ViewLux with an exposure length of 5 seconds.
In the case of `CC(=O)Oc1cccc(N2C(=O)c3cccc4c([N+](=O)[O-])ccc(c34)C2=O)c1`, the Potency is reported as inconclusive: 3.98 µM [inhibitor, partial curve, poor fit]. For `COc1ccc(C(CCN2CCCC(C)C2)c2c(OC)cc(OC)c3c(-c4ccccc4)cc(=O)oc23)cc1` (centres undefined), the Potency was inconclusive: 28.2 µM [inhibitor, single point]. With `O=S(=O)(c1cccc2cnccc12)N1CCNCC1` the Potency was inconclusive: 7.94 µM [inhibitor, single point]. With `Cc1cc(Nc2nc(Cl)c(Cl)cc2Cl)n(-c2ccccc2)n1` the Potency was inconclusive: 22.4 µM [inhibitor, single point]. In the case of `CC1CN(Cc2ccccc2)c2nc3c(c(=O)n(CC(N)=O)c(=O)n3C)n2C1` (centres undefined), the Potency is reported as inconclusive: 0.1 µM [inhibitor, full curve, poor fit]. For `CC(C)(C)[C@@H]1COC(=O)[C@H](Cc2ccc(F)cc2)C/C=C\C[C@H](CC(=O)N(CCO)Cc2ccccc2)C(=O)N1`, the Potency was inconclusive: 4.47 µM [inhibitor, partial curve, poor fit]. For `CC(C)[C@H](NC(=O)N1c2ccccc2NC(=O)[C@@H]1C(C)C)C(=O)N1CCC[C@H]1C(=O)O`, the Potency was “inactive”. With `Cc1ccc(C)n1-c1ccc(N2CCOCC2)c([N+](=O)[O-])c1` the Potency was inconclusive: 22.4 µM [inhibitor, partial curve, poor fit]. With `CCOC(=O)c1c(C)[nH]c(C)c1S(=O)(=O)NCCc1cccs1` the Potency was inconclusive: 7.08 µM [inhibitor, partial curve, poor fit]. With `CCOc1ccc(NC(=O)c2ccccn2)cc1` the Potency was active: 1.58 µM. With `O=C(/C=C/c1ccccc1)Nc1cccc(C(=O)NCCCc2ccccc2)c1` the Potency was inconclusive: 11.2 µM [inhibitor, partial curve]. In the case of `O=C(c1cccc(S(=O)(=O)N2CCOCC2)c1)N(Cc1ccc(F)cc1)Cc1ccco1`, the Potency is reported as inconclusive: 1.12 µM [inhibitor, full curve, poor fit]. For `Cc1ccc(S(=O)(=O)Oc2ccccc2/C=N/NC(N)=S)cc1`, the Potency was inconclusive: 0.501 µM [inhibitor, full curve, poor fit]. With `CCOc1ccccc1NC(=O)/C=C/C(N)=O` the Potency was inconclusive: 12.6 µM [inhibitor, single point]. In the case of `COc1ccc(N2CC(C(=O)Nc3ccc(S(=O)(=O)Nc4nccs4)cc3)CC2=O)c(OC)c1` (centres undefined), the Potency is reported as “inactive”. In the case of `CCOc1ccc(N(C)S(=O)(=O)c2cc(-c3cc(C)no3)ccc2C(C)C)cc1`, the Potency is reported as inconclusive: 10 µM [inhibitor, single point]. For `COc1cc2c(cc1OC)C(=O)N1[C@H]3c4ccccc4OC[C@@H]3[C@H](c3ccccc3)[C@]1(C)C(=O)N2`, the Potency was inconclusive: 2.51 µM [inhibitor, partial curve]. With `Nc1ccccc1OCCOc1ccccc1N` the Potency was “inactive”. In the case of `CC1(C)CC(/C=C/c2ccccc2)=Nc2ccccc2N1`, the Potency is reported as inconclusive: 8.91 µM [inhibitor, single point]. For `COc1c(Br)cc([N+](=O)[O-])c(OC)c1C(=O)NC(=O)Nc1cc(Cl)cc(Cl)c1`, the Potency was inconclusive: 10 µM [inhibitor, single point]. In the case of `O=C(CN1C(=O)NC2(CCCCC2)C1=O)Nc1ccc2c(c1)CCC2`, the Potency is reported as inconclusive: 10 µM [inhibitor, single point]. In the case of `N/C(=N\OC(=O)CCCOc1ccc(Cl)cc1Cl)c1ccccn1`, the Potency is reported as “inactive”. For `Cc1ccc(S(=O)(=O)N(Cc2ccccc2)C(C)C)cc1`, the Potency was inconclusive: 25.1 µM [inhibitor, partial curve, poor fit]. For `Cc1nc2ccc(S(=O)(=O)Nc3cccc(-c4nc5cccnc5s4)c3)cc2s1`, the Potency was inconclusive: 12.6 µM [inhibitor, single point]. With `Cc1cccc2c1-c1sc(C(=O)NCCCN3CCCC(C)C3)cc1CO2` (centres undefined) the Potency was inconclusive: 7.94 µM [inhibitor, single point]. For `CCCCS(=O)(=O)/C=C\C=C/S(=O)(=O)CCCC`, the Potency was “inactive”. For `N#C/C(=C/c1ccco1)c1nc2ccccc2s1`, the Potency was inconclusive: 11.2 µM [inhibitor, partial curve, poor fit]. With `COc1ccc(CCNCC(O)Cn2c3ccccc3c3ccccc32)cc1OC` (centres undefined) the Potency was inconclusive: 11.2 µM [inhibitor, partial curve, poor fit]. With `O=C(CN1CCN(CC(=O)Nc2ccccc2Cl)CC1)Nc1ccc(F)c(F)c1` the Potency was “inactive”. With `CCOC(=O)c1sc(NC(=O)c2cccc(S(=O)(=O)N3c4ccccc4CC3C)c2)cc1C` (centres undefined) the Potency was “inactive”. For `CCOc1[nH]n(-c2ccccc2)c(=O)c1C=Nc1ccccc1`, the Potency was active: 6.31 µM. With `O=[N+]([O-])c1ccc(Oc2cc(NC3CCCCCCC3)c([N+](=O)[O-])cc2[N+](=O)[O-])cc1` the Potency was “inactive”. With `Cc1cc(C)n2nc(SCC(=O)N3CCOCC3)nc2n1` the Potency was inconclusive: 10 µM [inhibitor, single point]. With `Cc1ccc(S(=O)(=O)N2CCN(C(=O)CN3CCN(c4ccc(O)cc4)CC3)CC2)cc1` the Potency was inconclusive: 7.94 µM [inhibitor, single point]. With `c1ccc(OCc2nc3ccccc3s2)cc1` the Potency was “inactive”. With `CN(CCCNC(=O)CCCOc1cc(=O)n(C)c2ccccc12)Cc1ccccc1` the Potency was inconclusive: 10 µM [inhibitor, partial curve]. In the case of `O=C(NCc1cccnc1)C1CC(c2cccc(Br)c2)=NO1` (centres undefined), the Potency is reported as inconclusive: 31.6 µM [inhibitor, partial curve, poor fit]. In the case of `O=C(C#Cc1ccccc1)Nc1ccccc1F`, the Potency is reported as inconclusive: 11.2 µM [inhibitor, partial curve, poor fit]. For `COc1ccc(C/C(N)=N/OC(=O)c2cccc([N+](=O)[O-])c2)cc1`, the Potency was “inactive”. In the case of `N#CCCN1CCN(S(=O)(=O)c2ccc(C#N)cc2)CC1`, the Potency is reported as “inactive”. For `O=[N+]([O-])CC(c1ccccc1)c1c[nH]c2ccccc12` (centres undefined), the Potency was inconclusive: 6.31 µM [inhibitor, partial curve, poor fit]. In the case of `CCCCCc1ccc(-c2ccc(/C=C/C(=O)O)cc2)nc1`, the Potency is reported as inconclusive: 4.47 µM [inhibitor, partial curve, poor fit]. In the case of `Cc1ccc(C)c(N2CCN(C(=O)c3cn(C)c4ccc(S(=O)(=O)N(C)C)cc4c3=O)CC2)c1`, the Potency is reported as “inactive”. For `O=C(Nc1ccccc1)C(=O)Nc1ccccn1`, the Potency was inconclusive: 3.55 µM [inhibitor, partial curve, poor fit]. For `NC(=O)c1ccc(N2CCN(S(=O)(=O)c3cccs3)CC2)c([N+](=O)[O-])c1`, the Potency was inconclusive: 7.94 µM [inhibitor, partial curve, poor fit]. For `Oc1ccc(C[C@@H]2CNCCN2CCc2cc(C(F)(F)F)cc(C(F)(F)F)c2)cc1`, the Potency was inconclusive: 5.01 µM [inhibitor, partial curve, poor fit]. With `Cc1ccc(-c2nnc(SCC(=O)N(CC(C)C)c3c(N)n(Cc4ccccc4)c(=O)[nH]c3=O)n2N)cc1` the Potency was “inactive”. In the case of `CCCN1CCN(CCCNC(=O)c2cc3c(s2)-c2ccccc2OC3)CC1`, the Potency is reported as “inactive”. With `O=C(c1cccc(Cl)c1)N1CCC(=O)N(C(COCc2cccc(Cl)c2)Cc2ccccc2)CC1` (centres undefined) the Potency was inconclusive: 12.6 µM [inhibitor, single point]. For `CSc1ccccc1NC(=O)CN(Cc1ccc(Cl)cc1)S(C)(=O)=O`, the Potency was “inactive”. With `CCOc1cccc2sc(=NC(=O)CCS(=O)(=O)c3ccc(F)cc3)n(C)c12` the Potency was inconclusive: 12.6 µM [inhibitor, single point]. For `Cc1ccc(NC(=O)c2cc3ccccc3o2)cc1`, the Potency was inconclusive: 20 µM [inhibitor, single point]. In the case of `COc1ccccc1NC(=O)Nc1ccc2c(c1)CCC2`, the Potency is reported as inconclusive: 4.47 µM [inhibitor, partial curve, poor fit]. For `COc1ccc(OC)c(C2=NOC(C(=O)NCc3cccs3)C2)c1` (centres undefined), the Potency was inconclusive: 7.08 µM [inhibitor, partial curve, poor fit]. In the case of `CCNC(=S)N(Cc1ccco1)Cc1cc2cc(OCC)ccc2[nH]c1=O`, the Potency is reported as inconclusive: 8.91 µM [inhibitor, partial curve, poor fit]. For `O=C(OCC(=O)c1ccc(Cl)s1)c1ccccn1`, the Potency was “inactive”. In the case of `COC(=O)c1cccc(C23CC4(C2)[C@H](CN(Cc2cccnc2)[C@@H]4c2ccccc2)C3c2ccccc2)c1` (some centres undefined), the Potency is reported as inconclusive: 28.2 µM [inhibitor, single point]. With `COc1cc2ncnc(N[C@H](C)c3ccccc3)c2cc1OC` the Potency was inconclusive: 12.6 µM [inhibitor, single point]. In the case of `COc1ccc(-n2c(=O)c(CCC(=O)N3CCC(C)CC3)nc3ccccc32)cc1`, the Potency is reported as “inactive”. With `CCOC(=O)c1ccc(-c2c(-c3ccc4c(c3)OCO4)noc2C)cc1F` the Potency was inconclusive: 31.6 µM [inhibitor, single point]. With `COc1ccc(-c2ccc(OC)c([C@H]3[C@@H]4C=CCC[C@@]4(C)C(=O)N3Cc3ccccc3)c2)cc1OC` the Potency was inconclusive: 22.4 µM [inhibitor, single point]. For `O=C(CSc1ccc(F)cc1)Nc1ccccc1N1CCOCC1`, the Potency was inconclusive: 1 µM [inhibitor, full curve, poor fit]. With `CN1CCc2cccc3c2[C@H]1Cc1ccc(O)c(O)c1-3` the Potency was inconclusive: 7.94 µM [inhibitor, single point] and inconclusive: 7.08 µM [inhibitor, single point] and inconclusive: 12.6 µM [inhibitor, single point]. In the case of `COC(=O)CSc1nc2ccc(NC(=O)c3ccccc3C(=O)N3CCOCC3)cc2s1`, the Potency is reported as “inactive”.
